The test has as its target human NGF (human, UniProt P01138 122-241, limits assumed). The test is described as follows: BIAcore affinity screening of L1/L2 library Fabs on human NGF.

Amino acid sequences for entries named in this document (tags omitted). Residues count along the entry.
UniProt P01138, residues 122-241: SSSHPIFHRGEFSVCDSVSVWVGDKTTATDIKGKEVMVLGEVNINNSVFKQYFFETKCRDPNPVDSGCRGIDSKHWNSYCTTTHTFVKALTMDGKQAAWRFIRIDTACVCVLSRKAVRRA

These are yes or no findings as the source states them, for the method shown. Some results given as binding are weak or reduced against the parent protein; the word gives no strength.

B1: L129 (light chain L1/L2 library clone) (Fab, V domains shown)
VH: QVQLQESGPGLVKPSETLSLTCTVSGFSLIGYDINWIRQPPGKGLEWIGMIWGDGTTDYNSALKSRVTISKDTSKNQFSLKLSSVTAADTAVYYCARGGYYYGTSYYFDYWGQGTLVTVS
VL: DIQMTQSPSSLSASVGDRVTITCRASQSISNNLNWYQQKPGKAPKLLIYYTSRFHSGVPSRFSGSGSGTDFTFTISSLQPEDIATYYCQQSKTLPYTFGQGTKLEIKR
For B1, the binding result is “binds”.

B2: L97 (light chain L1/L2 library clone) (Fab, V domains shown)
VH: QVQLQESGPGLVKPSETLSLTCTVSGFSLIGYDINWIRQPPGKGLEWIGMIWGDGTTDYNSALKSRVTISKDTSKNQFSLKLSSVTAADTAVYYCARGGYYYGTSYYFDYWGQGTLVTVS
VL: DIQMTQSPSSLSASVGDRVTITCRASQSISNQLNWYQQKPGKAPKLLIYYVSRFHSGVPSRFSGSGSGTDFTFTISSLQPEDIATYYCQQSKTLPYTFGQGTKLEIKR
In the case of B2, the binding result is “binds”.

B3: L81 (light chain L1/L2 library clone) (Fab, V domains shown)
VH: QVQLQESGPGLVKPSETLSLTCTVSGFSLIGYDINWIRQPPGKGLEWIGMIWGDGTTDYNSALKSRVTISKDTSKNQFSLKLSSVTAADTAVYYCARGGYYYGTSYYFDYWGQGTLVTVS
VL: DIQMTQSPSSLSASVGDRVTITCRAFQAISNQLNWYQQKPGKAPKLLIYYISRFHTGVPSRFSGSGSGTDFTFTISSLQPEDIATYYCQQSKTLPYTFGQGTKLEIKR
As to B3, the binding entry is on record as “binds”.

B4: L6 (light chain L1/L2 library clone) (Fab, V domains shown)
VH: QVQLQESGPGLVKPSETLSLTCTVSGFSLIGYDINWIRQPPGKGLEWIGMIWGDGTTDYNSALKSRVTISKDTSKNQFSLKLSSVTAADTAVYYCARGGYYYGTSYYFDYWGQGTLVTVS
VL: DIQMTQSPSSLSASVGDRVTITCRAFQSISNQLNWYQQKPGKAPKLLIYYASRFHSGVPSRFSGSGSGTDFTFTISSLQPEDIATYYCQQSKTLPYTFGQGTKLEIKR
Take B4: the binding entry is given as “binds”.

B5: L208 (light chain L1/L2 library clone) (Fab, V domains shown)
VH: QVQLQESGPGLVKPSETLSLTCTVSGFSLIGYDINWIRQPPGKGLEWIGMIWGDGTTDYNSALKSRVTISKDTSKNQFSLKLSSVTAADTAVYYCARGGYYYGTSYYFDYWGQGTLVTVS
VL: DIQMTQSPSSLSASVGDRVTITCRASQYISNHLNWYQQKPGKAPKLLIYYTSRFHSGVPSRFSGSGSGTDFTFTISSLQPEDIATYYCQQSKTLPYTFGQGTKLEIKR
Take B5: the binding entry is reported as “binds”.

The values above are taken from US20100260775A1 (Pfizer, published 2010).
